Consider one substance from publication PMC3763552.

By UniProt entry, the sequences of proteins in these tests, tags left out.
UniProt Q04637: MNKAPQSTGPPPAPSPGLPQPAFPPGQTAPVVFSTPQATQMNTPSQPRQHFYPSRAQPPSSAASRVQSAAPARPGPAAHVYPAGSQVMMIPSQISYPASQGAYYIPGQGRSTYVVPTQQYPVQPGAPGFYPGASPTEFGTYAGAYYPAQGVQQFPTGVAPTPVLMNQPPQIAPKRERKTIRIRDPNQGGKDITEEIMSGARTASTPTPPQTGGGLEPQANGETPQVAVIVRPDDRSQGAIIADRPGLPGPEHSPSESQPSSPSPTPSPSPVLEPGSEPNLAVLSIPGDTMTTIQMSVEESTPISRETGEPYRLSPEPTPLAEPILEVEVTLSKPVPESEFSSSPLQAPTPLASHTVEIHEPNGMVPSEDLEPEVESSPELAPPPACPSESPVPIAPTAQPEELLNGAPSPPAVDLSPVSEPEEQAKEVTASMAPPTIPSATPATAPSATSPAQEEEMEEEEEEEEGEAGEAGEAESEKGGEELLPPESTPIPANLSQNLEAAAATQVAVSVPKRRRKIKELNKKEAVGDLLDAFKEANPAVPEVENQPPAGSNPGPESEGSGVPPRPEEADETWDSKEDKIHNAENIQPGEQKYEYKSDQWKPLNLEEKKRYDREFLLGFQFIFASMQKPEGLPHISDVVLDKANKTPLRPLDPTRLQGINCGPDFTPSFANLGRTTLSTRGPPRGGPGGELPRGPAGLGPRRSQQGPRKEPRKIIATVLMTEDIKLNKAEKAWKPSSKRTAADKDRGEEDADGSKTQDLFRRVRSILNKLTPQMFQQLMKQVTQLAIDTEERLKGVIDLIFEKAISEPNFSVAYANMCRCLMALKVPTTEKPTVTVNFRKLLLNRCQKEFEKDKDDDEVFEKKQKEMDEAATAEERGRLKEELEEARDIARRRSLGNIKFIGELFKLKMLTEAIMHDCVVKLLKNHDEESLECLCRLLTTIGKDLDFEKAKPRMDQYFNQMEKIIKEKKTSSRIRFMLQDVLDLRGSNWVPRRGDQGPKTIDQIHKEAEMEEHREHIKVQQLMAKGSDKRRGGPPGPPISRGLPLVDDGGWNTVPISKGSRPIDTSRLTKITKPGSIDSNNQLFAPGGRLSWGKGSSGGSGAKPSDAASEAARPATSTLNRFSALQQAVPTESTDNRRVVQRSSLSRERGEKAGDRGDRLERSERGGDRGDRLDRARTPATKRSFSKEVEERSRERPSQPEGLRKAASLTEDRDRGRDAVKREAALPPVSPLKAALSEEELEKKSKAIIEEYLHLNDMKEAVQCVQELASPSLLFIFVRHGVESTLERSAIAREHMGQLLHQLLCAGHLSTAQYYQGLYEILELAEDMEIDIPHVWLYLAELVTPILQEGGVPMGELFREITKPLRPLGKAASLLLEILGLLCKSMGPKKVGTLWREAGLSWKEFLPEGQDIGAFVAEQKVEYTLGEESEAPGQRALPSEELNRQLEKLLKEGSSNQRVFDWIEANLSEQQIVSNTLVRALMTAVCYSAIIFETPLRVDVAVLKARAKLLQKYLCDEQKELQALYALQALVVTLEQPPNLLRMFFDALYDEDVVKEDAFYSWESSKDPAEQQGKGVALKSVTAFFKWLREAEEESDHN
UniProt Q13541: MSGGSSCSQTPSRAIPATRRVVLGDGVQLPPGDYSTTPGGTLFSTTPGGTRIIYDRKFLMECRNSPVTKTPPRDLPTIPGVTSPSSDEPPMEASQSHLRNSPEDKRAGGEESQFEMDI

Results are given in words; binding and its absence hold for the method and conditions named. In cells and extracts the contact can be indirect.

The test concerns the target endogenous eIF4GI (human (endogenous in HeLa S3)) (UniProt Q04637).

Consider 4E-BP1 (from UniProt Q13541 1-118), for which the binding result is recorded as “no binding”.
